PubChem BioAssay AID624297 (National Center for Advancing Translational Sciences (NCATS), 2012)
Several values for one entry are separate records, joined by “and”; a condition that tells them apart may be missing. Equal entries are not always repeated. About 6,200 (1.8%) of roughly 340,000 compounds were called active. This list was built around the results that the source calls inconclusive (neither active nor inactive); the mix of calls is not that of the screen. Calls come from the whole dose curve; as a rule, active = well fitted activation curve with a large enough effect; inconclusive = small, poorly fitted or top-dose-only effect; inactive = no such curve, though single readings can be large or run the other way. Where the call is inconclusive, the potency comes from a doubtful curve fit.

assay: A quantitative high throughput screen for small molecules that induce DNA re-replication in SW480 colon adenocarcinoma cells.; note: nearly all actives have a fitted effect of over 55% in size; for re-replication activation: % of control where 0% means no effect; settings: Hoechst DNA content imaging, 48 h; re-replication activation: at 46.1 µM (top of the series) unless noted
Summary of the method: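 Quantitative HTS format with DMSO vehicle controls; 48 hr drug incubation at 37 C, then 40 min Hoechst staining and scanning imager measurement at 405 nm excitation.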
Potency is the fitted concentration of half-maximal effect.

| Structure (SMILES) | Potency | re-replication activation |
| --- | --- | --- |
| COc1ccc(C)cc1-n1nnnc1SCC(=O)Nc1cccnc1Cl | inactive | – |
| Brc1cc2c(cc1/C=N/Nc1nc(N3CCOCC3)nc(N3CCOCC3)n1)OCO2 | inactive | – |
| CCCc1cc(=O)[nH]c2nnc(SCC(=O)Nc3cccc(NC(C)=O)c3)n12 | inconclusive: 0.0731 µM [activator, full curve, poor fit] | – |
| CN1CCN(c2nc(-c3ccncc3)nc3ccccc23)CC1 | inconclusive: 31.6 µM [activator, single point] | – |
| CC(=O)N(C1=C(Cl)C(=O)c2ccccc2C1=O)c1ccc(C(=O)O)cc1 | inconclusive: 18.4 µM [activator, single point] | – |
| Cc1cc(SCc2ccc(Cl)cc2Cl)nc(=O)[nH]1 | inconclusive: 20.6 µM [activator, partial curve, poor fit] | – |
| Cc1cccc(C)c1NC(=O)CNC(=O)c1cncc(Br)c1 | inconclusive: 0.092 µM [activator, full curve, poor fit] | – |
| Cc1ccc(S(=O)(=O)N[C@H](C(=O)Oc2ccc3c(C(F)(F)F)cc(=O)oc3c2)c2ccccc2)cc1 | inconclusive: 16.4 µM [activator, single point] | – |
| CC(NC(=O)COC(=O)Cn1cc(C(F)(F)F)ccc1=O)c1ccccc1 (stereo unspecified) | inconclusive: 23.1 µM [activator, single point] | – |
| COc1ccc(-n2c(N)c(C(=O)NCC3CCCO3)c3nc4ccccc4nc32)c(OC)c1 (stereo unspecified) | inconclusive: 23.1 µM [activator, single point] | – |
| CC(=O)N1CCSc2ccc(S(=O)(=O)NCc3ccc(F)cc3)cc21 | inconclusive: 32.6 µM [activator, single point] | – |
| O=C(NC(=S)N1CCCC1)c1ccc(Cl)cc1Cl | inconclusive: 29.1 µM [activator, single point] | – |
| Cc1nc2c(O)c3c(c(O)c2nc1C)C1C=CC3CC1 | active: 3.26 µM | – |
| Cn1c(N)c(C(=O)CSc2nnc(-c3c[nH]c4ccccc34)n2C2CC2)c(=O)[nH]c1=O | inactive | – |
| Brc1ccc(/C=N/Nc2ccccc2)cc1 | inconclusive: 1.84 µM [activator, partial curve, poor fit] | – |
| CCn1c(C)c(C(C)=O)c(N2CCN(C(c3ccccc3)c3ccccc3)CC2)nc1=S | inconclusive: 11.6 µM [activator, partial curve, poor fit] | – |
| Cc1ccc(-c2nc(CSCC(=O)NCC3CCCO3)c(C)o2)cc1 (stereo unspecified) | inconclusive: 20.6 µM [activator, single point] | – |
| COC(=O)/C=C/c1ccc(OC(=O)OC)c(OC(=O)OC)c1 | inactive | – |
| S=C1NC[C@H](c2ccccc2)N1CCCCC1CCCCC1 | inactive | – |
| COc1cccc(CNS(=O)(=O)c2cn(C)cn2)c1 | inactive | – |
| CCOc1ccc(N(CC(=O)N2CCC(Cc3ccccc3)CC2)S(C)(=O)=O)cc1 | inconclusive: 14.6 µM [activator, single point] | – |
| CN(C)CCCN(C(=O)c1ccc(S(=O)(=O)N2CCc3ccccc32)cc1)c1nc2ccc(F)cc2s1 | inconclusive: 23.1 µM [activator, single point] | – |

| Structure (SMILES) | Potency | re-replication activation |
| --- | --- | --- |
| CC(C)Sc1nnc([C@H](Cc2c[nH]c3ccccc23)NC(=O)OC(C)(C)C)o1 | inactive | – |
| Cc1sc2ncnc(NCC3CCCO3)c2c1C (stereo unspecified) | – | inactive: 2.57% [at 9.22 µM] |
| CC1=C(C(=O)OC(C)C)C(c2cn(-c3ccccc3)nc2-c2cccs2)NC(=O)N1 (stereo unspecified) | inconclusive: 32.6 µM [activator, partial curve, poor fit] | – |
| CCOc1ccccc1Nc1nnc(SC(C)C(=O)Nc2nc(-c3ccccc3)cs2)s1 (stereo unspecified) | inconclusive: 32.6 µM [activator, partial curve, poor fit] | – |
| CC1=CC(=O)C(C(C)C)=C/C1=C(\c1cc(C(C)C)c(OP(=O)(O)O)cc1C)c1ccccc1C(=O)O | inconclusive: 29.1 µM [activator, single point] | – |
| Cc1ccc[n+](CC(=O)Nc2ccc([N+](=O)[O-])cc2)c1 | inconclusive: 13 µM [activator, partial curve, poor fit] | – |
| O=C1NC(c2ccccc2)=C(c2ccccc2)C1=O | inactive | – |
| OC(c1cc(-c2cccc(Cl)c2)nc2ccccc12)C1CCCCN1 (stereo unspecified) | inconclusive: 7.31 µM [activator, partial curve, poor fit] | – |
| Cc1cc(Cl)c(S(N)(=O)=O)cc1OCC(N)=O | inactive | – |
| COc1ccc(Br)cc1/C=C/C(=O)c1ccc(NC(C)=O)cc1 | active: 14.6 µM | – |
| NC(=S)N/N=C/c1cccc(O)c1O | inconclusive: 29.1 µM [activator, single point] | – |
| CC(C)n1cnc2c(Nc3cccc(Cl)c3)nc(N(CCO)CCCO)nc21 | inconclusive: 23.1 µM [activator, single point] | – |
| CCCCN1C(=O)C(=Nc2cccc3cnccc23)c2ccccc21 | inconclusive: 29.1 µM [activator, single point] | – |
| COc1ccc(N2CCN(c3ncnc4c3cnn4-c3ccc(C)cc3C)CC2)cc1 | inactive | – |
| O=C(N/N=C/c1cn(-c2cccs2)nc1-c1ccccc1)c1ccc(O)cc1 | inactive | – |
| COc1cccc2sc(Nc3nc(-c4ccncc4)cs3)nc12 | inconclusive: 0.82 µM [activator, full curve, poor fit] | – |
| Cc1nn(-c2ccc(F)cc2)c(Cl)c1/C=C1\C(=O)Nc2ccccc21 | inconclusive: 29.1 µM [activator, single point] | – |
| O=C(O)C1OC1(c1ccccc1Cl)c1ccccc1Cl (stereo unspecified) | inactive | – |
| Cc1nn(C(C)c2nc(-c3ccccc3)no2)c(C)c1[N+](=O)[O-] (stereo unspecified) | inconclusive: 6.51 µM [activator, full curve, poor fit] | – |
| CCCCn1c(=O)[nH]c(=O)c2c(C(=O)OCC)cc(-c3ccc(OC(F)F)cc3)nc21 | inconclusive: 29.1 µM [activator, single point] | – |
| Cc1ccc2c(N)c(C(=O)c3ccccc3)sc2n1 | inconclusive: 18.4 µM [activator, partial curve, poor fit] | – |
| NC(=O)c1ccc[n+](Cc2ccccc2)c1 | inconclusive: 29.1 µM [activator, single point] | – |

| Structure (SMILES) | Potency | re-replication activation |
| --- | --- | --- |
| COc1ccc(Cn2c(SCc3ccc(C)cc3)nc3cc(OC)c(OC)cc3c2=N)cc1Cl | inconclusive: 4.11 µM [activator, single point] | – |
| CCn1cc(C(=O)OCC(=O)c2cc(C)n(-c3ccc(OC(F)F)cc3)c2C)c(=O)c2ccc(C)nc21 | inconclusive: 3.66 µM [activator, full curve, poor fit] | – |
| CSc1ccc(/C=N/NC(=O)c2ccc(C)c(C)c2)cc1 | inactive | – |
| O=C(CN1CCc2ccccc2C1)Nc1ccc(F)cc1 | inactive | – |
| Cc1ccc2cccc(OC(=O)/C=C\c3ccccc3)c2n1 | inactive | – |
| COc1ccc(S(=O)(=O)N2CCN(CC(=O)NC(Cc3ccccc3)C(C)=O)CC2)cc1 (stereo unspecified) | inactive | – |
| Cc1ccc(-c2n[nH]c(=S)n2/N=C/c2cccs2)cc1 | inconclusive: 14.6 µM [activator, single point] | – |
| CC(=O)N(CCCN(C)C)c1nc2ccc(C)cc2s1 | inconclusive: 18.4 µM [activator, single point] | – |
| COc1cccc2c1C1COC3C4CC(C(=O)O)C(C(C2)N13)N4C (stereo unspecified) | inconclusive: 3.66 µM [activator, full curve] | – |
| Cc1cc(C)cc(N/C(N)=N/c2nc(C)cc(C)n2)c1 | inconclusive: 29.1 µM [activator, single point] | – |
| COc1ccc2c(-c3ccc(SC)cc3)c(-c3ccc(S(C)(=O)=O)cc3)sc2c1 | inconclusive: 18.4 µM [activator, single point] | – |
| COc1cccc(CN2CCN(Cc3[nH]c4ccccc4c3C)CC2CCO)c1 (stereo unspecified) | inactive | – |
| CCOC(=O)N1CCN(C(=O)c2ccccc2NC(=O)c2ccc(C(C)(C)C)cc2)CC1 | inconclusive: 23.1 µM [activator, single point] | – |
| Cc1ccc(-n2nc(-c3ccco3)cc2C(=O)NCc2cccnc2)cc1 | inconclusive: 29.1 µM [activator, single point] | – |
| CC(C)(C)c1cccc(P(=O)(c2ccccc2)c2ccccc2)c1O | inconclusive: 18.4 µM [activator, single point] | – |
| CCCNC(=O)C1CCC(CNS(=O)(=O)c2ccc3c(c2)CC(C)N3C(C)=O)CC1 (stereo unspecified) | inconclusive: 0.116 µM [activator, full curve, poor fit] | – |
| COCC(C)n1c(C)cc(C(=O)COC(=O)c2ccc3c(c2)NC(=O)CS3)c1C (stereo unspecified) | inconclusive: 20.6 µM [activator, single point] | – |
| COCCOC(=O)c1c(NC(=O)CNc2ccc(C)c(F)c2)sc(C(N)=O)c1C | inconclusive: 29.1 µM [activator, single point] | – |
| CC(=O)Nc1ccc(S(=O)(=O)NC2=C(N3CCN(Cc4ccccc4)CC3)C(=O)c3ccccc3C2=O)cc1 | inconclusive: 103 nM [activator, full curve, poor fit] and inconclusive: 18.4 µM [activator, single point] | – |
| O=C(CCl)Nc1cc(S(=O)(=O)N2CCCCCC2)ccc1Cl | inconclusive: 28.2 µM [activator, single point] | – |
| COc1ccc(-c2c(C)nc(N)nc2-c2ccc(OCc3ccc(C)cc3)cc2O)cc1OC | inactive | – |
| COc1ccc(-c2nc(NC(=O)c3n[nH]c(=O)c4ccccc34)sc2C)cc1 | inconclusive: 15.8 µM [activator, partial curve, poor fit] | – |

Gathered by group: the compounds so far containing a CF3 group.

| Structure (SMILES) | Potency | re-replication activation |
| --- | --- | --- |
| Cc1ccc(S(=O)(=O)N[C@H](C(=O)Oc2ccc3c(C(F)(F)F)cc(=O)oc3c2)c2ccccc2)cc1 | inconclusive: 16.4 µM [activator, single point] | – |
| CC(NC(=O)COC(=O)Cn1cc(C(F)(F)F)ccc1=O)c1ccccc1 (stereo unspecified) | inconclusive: 23.1 µM [activator, single point] | – |
